PubChem BioAssay (NCATS)
Inconclusive results, whose numbers are uncertain, are shown with a selection of clear calls. For some assays here: Where the call is inconclusive, the potency comes from a doubtful curve fit. Activity calls are given as the source filed them. Unless noted, calls come from the whole dose curve; as a rule, active = well fitted curve in the direction sought with a large enough effect; inconclusive = small, poorly fitted or top-dose-only effect, or another doubt; inactive = no such curve, though single readings can be large; an effect the other way counts as inactive or inconclusive.

Protein sequences, listed by entry. Tags and fused reporters are not part of them. Lines headed by an entry give the natural chain unless they say otherwise; changes in a name come on top.
UniProt Q14994: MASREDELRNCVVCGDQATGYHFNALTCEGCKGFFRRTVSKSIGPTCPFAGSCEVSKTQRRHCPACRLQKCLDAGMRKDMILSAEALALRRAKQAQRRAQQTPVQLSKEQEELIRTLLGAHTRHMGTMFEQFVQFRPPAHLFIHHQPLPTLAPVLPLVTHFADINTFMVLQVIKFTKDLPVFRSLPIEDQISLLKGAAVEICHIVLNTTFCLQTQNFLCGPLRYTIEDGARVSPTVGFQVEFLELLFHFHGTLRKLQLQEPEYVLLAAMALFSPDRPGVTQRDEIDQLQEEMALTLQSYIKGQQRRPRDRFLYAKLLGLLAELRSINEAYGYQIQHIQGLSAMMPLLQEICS
UniProt P10635, whole entry, looked up: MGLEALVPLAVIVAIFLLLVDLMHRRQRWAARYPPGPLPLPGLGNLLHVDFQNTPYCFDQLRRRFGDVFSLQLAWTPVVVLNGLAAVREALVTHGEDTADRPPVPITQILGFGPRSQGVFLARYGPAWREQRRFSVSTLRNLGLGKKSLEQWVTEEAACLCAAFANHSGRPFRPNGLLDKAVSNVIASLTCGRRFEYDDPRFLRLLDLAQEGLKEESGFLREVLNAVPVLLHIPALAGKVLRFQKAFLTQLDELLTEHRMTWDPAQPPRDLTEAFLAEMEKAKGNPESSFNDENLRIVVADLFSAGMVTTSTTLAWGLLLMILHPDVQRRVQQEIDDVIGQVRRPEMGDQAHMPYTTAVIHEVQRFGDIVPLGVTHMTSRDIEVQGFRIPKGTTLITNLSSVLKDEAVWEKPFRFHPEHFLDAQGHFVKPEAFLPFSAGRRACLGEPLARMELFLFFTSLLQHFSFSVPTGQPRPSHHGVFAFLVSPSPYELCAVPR
UniProt O75469: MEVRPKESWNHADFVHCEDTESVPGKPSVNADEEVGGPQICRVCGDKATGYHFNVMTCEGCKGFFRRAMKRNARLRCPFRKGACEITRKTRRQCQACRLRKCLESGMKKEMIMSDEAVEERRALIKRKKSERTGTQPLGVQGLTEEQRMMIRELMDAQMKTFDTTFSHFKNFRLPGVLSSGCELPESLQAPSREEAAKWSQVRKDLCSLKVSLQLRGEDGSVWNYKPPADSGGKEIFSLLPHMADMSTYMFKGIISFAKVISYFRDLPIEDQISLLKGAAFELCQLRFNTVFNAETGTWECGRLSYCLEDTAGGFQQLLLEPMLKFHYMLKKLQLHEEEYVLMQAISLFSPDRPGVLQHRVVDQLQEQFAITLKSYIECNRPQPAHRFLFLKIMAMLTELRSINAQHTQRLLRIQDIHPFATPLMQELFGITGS
UniProt P11712, whole entry, looked up: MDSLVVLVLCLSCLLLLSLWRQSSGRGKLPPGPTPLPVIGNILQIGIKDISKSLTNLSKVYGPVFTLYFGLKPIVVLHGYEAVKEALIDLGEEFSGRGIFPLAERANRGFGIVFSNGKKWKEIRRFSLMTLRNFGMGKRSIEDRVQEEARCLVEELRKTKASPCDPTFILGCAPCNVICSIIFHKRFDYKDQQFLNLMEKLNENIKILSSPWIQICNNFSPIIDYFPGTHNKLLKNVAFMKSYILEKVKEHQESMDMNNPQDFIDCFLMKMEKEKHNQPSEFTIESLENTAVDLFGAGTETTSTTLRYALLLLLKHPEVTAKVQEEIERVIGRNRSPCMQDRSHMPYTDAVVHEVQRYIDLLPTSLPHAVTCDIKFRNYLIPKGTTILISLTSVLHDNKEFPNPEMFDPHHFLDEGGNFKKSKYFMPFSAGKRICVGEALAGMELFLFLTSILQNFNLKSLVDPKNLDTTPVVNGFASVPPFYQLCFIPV
UniProt P05177, whole entry, looked up: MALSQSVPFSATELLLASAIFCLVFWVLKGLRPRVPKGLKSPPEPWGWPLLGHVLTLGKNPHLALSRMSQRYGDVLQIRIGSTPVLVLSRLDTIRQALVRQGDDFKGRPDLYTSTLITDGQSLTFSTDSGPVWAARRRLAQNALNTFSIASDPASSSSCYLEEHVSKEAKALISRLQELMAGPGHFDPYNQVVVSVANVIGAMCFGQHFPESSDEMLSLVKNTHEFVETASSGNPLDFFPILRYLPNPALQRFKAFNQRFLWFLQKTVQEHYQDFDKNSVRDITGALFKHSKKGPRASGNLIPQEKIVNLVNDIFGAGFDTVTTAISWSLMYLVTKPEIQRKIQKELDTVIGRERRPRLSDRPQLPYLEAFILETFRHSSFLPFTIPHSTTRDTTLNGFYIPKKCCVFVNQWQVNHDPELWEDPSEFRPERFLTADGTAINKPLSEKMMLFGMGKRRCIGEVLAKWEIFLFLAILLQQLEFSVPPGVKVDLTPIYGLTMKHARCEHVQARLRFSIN
UniProt O94782: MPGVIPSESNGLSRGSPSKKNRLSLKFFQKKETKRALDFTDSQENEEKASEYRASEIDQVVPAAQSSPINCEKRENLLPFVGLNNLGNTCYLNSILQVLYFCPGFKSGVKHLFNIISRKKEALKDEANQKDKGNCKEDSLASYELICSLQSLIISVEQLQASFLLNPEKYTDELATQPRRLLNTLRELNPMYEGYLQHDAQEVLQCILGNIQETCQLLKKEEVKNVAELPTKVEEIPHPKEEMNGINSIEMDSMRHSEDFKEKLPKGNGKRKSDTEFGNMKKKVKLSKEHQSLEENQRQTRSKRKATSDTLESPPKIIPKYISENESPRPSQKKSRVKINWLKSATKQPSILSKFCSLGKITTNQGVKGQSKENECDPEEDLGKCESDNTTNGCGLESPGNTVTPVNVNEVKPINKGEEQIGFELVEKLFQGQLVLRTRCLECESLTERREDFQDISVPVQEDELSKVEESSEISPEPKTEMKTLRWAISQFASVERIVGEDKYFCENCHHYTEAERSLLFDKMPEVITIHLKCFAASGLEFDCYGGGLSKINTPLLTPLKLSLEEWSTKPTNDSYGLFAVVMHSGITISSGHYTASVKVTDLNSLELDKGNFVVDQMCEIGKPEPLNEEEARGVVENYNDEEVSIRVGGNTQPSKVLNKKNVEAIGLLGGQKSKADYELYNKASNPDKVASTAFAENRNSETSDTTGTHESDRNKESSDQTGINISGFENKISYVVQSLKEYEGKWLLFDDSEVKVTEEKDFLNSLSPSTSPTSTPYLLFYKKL

Tests used:
[1] = molecular target: Nuclear receptor subfamily 1 group I member 3 (Homo sapiens) (UniProt Q14994); experiment: Primary qHTS for agonist of constitutive androstane receptor (CAR) against the NCATS DSHEA and TCM libraries (AID 1794839); details: CAR agonist reporter cells, qHTS luminescence, CAR antagonist co-added at 0.75 µM; series mostly up to 40 µM; note: potency is the fitted concentration of half-maximal effect
Procedure, shortened: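 HepG2-CYP2B6-hCAR cells (2,500/well) were attached for 5 h, then treated for 24 h at 37 °C with compounds plus 0.75 µM PK11195. Luciferase luminescence (ONE-Glo) was read, with CellTiter-Fluor viability (Ex/Em 405/540 nm).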

[2] = molecular target: Cytochrome P450 2D6 (Homo sapiens) (UniProt P10635); experiment: qHTS for inhibitors of CYP2D6 against the NCATS DSHEA and TCM libraries (AID 1919972); details: CYP2D6 enzymatic inhibition, luminescence qHTS; series mostly up to 34.1 µM; note: potency is the fitted concentration of half-maximal effect
Procedure, shortened: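 Luminescent P450-Glo read-out of CYP2D6 turnover of a luciferin substrate after NADPH-driven reaction of 30-45 min at room temperature. Compounds were first preincubated 15 min with enzyme at titrated concentrations; quinidine was the intraplate control.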

[3] = molecular target: Nuclear receptor subfamily 1 group I member 2 (Homo sapiens) (UniProt O75469); experiment: Dual reporter qHTS for antagonist of Pregnane X Receptor (hPXR) against the NCATS DSHEA and TCM libraries: Luminescence Readout (AID 1920060); details: hPXR dual reporter cells, luciferase luminescence, antagonist mode; activity change, negative = inhibition: at 40 µM (top of the series);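 note: HepG2 cells carrying hPXR luciferase reporter stimulated with rifampicin at 2 µM; 0% is about no effect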
Procedure, shortened: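 hPXR-Luc HepG2 cells exposed 24 h at 37 C to compounds with 2 uM rifampicin in antagonist mode; luciferase luminescence measured by ONE-Glo, with CellTiter-Fluor viability read beforehand.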

[4] = molecular target: Cytochrome P450 2C9 (Homo sapiens) (UniProt P11712); experiment: Cytochrome P450 family 2 subfamily C member 9 (CYP2C9) small molecule antagonists: luciferase biochemical (cell-free) qHTS assay (AID 1645842; active = well fitted curve in the direction sought with a large enough effect in the repeat runs; inconclusive = weak or mixed curves; inactive = no such curve, though single readings can be large; an effect the other way counts as inactive or inconclusive; note: potency is the fitted concentration of half-maximal effect; nearly all actives have a fitted effect of over 55% in size); details: P450-Glo CYP2C9 enzyme assay, luciferin luminescence; series mostly up to 57.4 µM
Procedure, shortened: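 Luminescence, after 20 min with luciferin detection reagent, reflected CYP2C9 turnover during a 1 h NADPH-driven reaction at 37C. Enzyme-substrate mix contained 0.4% bovine serum albumin and was preincubated with compound 10 min at room temperature.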

[5] = molecular target: Cytochrome P450 2C9 (Homo sapiens) (UniProt P11712); experiment: qHTS for inhibitors of CYP2C9 against the NCATS DSHEA and TCM libraries (AID 1919973); details: recombinant CYP2C9 enzyme activity, luminescence; series mostly up to 34.1 µM; note: potency is the fitted concentration of half-maximal effect
Procedure, shortened: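 Read-out is luminescence after P450-Glo detection (30 min, RT). Before that: 15 min compound–enzyme preincubation, then 30-45 min reaction with 1x NADPH regeneration solution, substrate concentration isoform-specific.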

[6] = molecular target: Cytochrome P450 1A2 (Homo sapiens) (UniProt P05177); experiment: qHTS for inhibitors of CYPIA2 against the NCATS DSHEA and TCM libraries (AID 1919976); details: recombinant CYP1A2 enzyme activity, luminescence; series mostly up to 37 µM;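 note: light from luciferin formed by CYP1A2 from a pro-luciferin substrate; % is set by controls: 0 for no effect and ±100 for the full control effect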
Procedure, shortened: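 CYP1A2 + luciferin substrate, 100 mM KPO4-type buffer; cmpd 15 min RT; 1x NADPH regen, 30-45 min RT dark; detection reagent 30 min RT; luminescence. Minus-enzyme wells as background; furafylline intraplate control.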

[7] = qHTS Assay for Lipid Storage Modulators (AID 1519; calls by dose curve; note: % is set by controls: 0 for no effect and ±100 for the full control effect); details: Drosophila S3 cells, BODIPY lipid droplet/cell ratio, laser cytometry, cells loaded with oleic acid; activity change, negative = inhibition: at 57.5 µM (top of the series) unless noted
Procedure, shortened: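 Cells seeded at 5,000 per well were treated with compounds over a concentration series and loaded with oleic acid (400 uM, as added). Lipid droplet fluorescence (488 nm excitation, 500-530 nm channel) was read by laser-scanning cytometry and normalized to 20 uM Triacsin C.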

[8] = molecular target: Ubiquitin carboxyl-terminal hydrolase 1 (Homo sapiens) (UniProt O94782); experiment: Inhibitors of USP1/UAF1: Pilot qHTS (AID 504865); details: purified USP1/UAF1, Ub-rhodamine cleavage fluorescence; series mostly up to 54.9 µM; note: potency is the fitted concentration of half-maximal effect; nearly all actives have a fitted effect of over 35% in size
Procedure, shortened: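 USP1/UAF1 complex (1nM) preincubated with compound 15 min at room temperature, then Ub-Rho substrate (150nM final) added. Fluorescence read kinetically at 480/540 nm, 6 reads every 60 seconds. Buffer: 50mM HEPES pH 7.8, 0.5mM EDTA, 0.1 mg/ml BSA, 1mM TCEP, 0.01% Tween-20.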

With `O=C(OC[C@H]1O[C@@H](OC(=O)c2cc(O)c(O)c(O)c2)[C@H](OC(=O)c2cc(O)c(O)c(O)c2)[C@@H](OC(=O)c2cc(O)c(O)c(O)c2)[C@@H]1OC(=O)c1cc(O)c(O)c(O)c1)c1cc(O)c(O)c(O)c1` the Potency [1] was inconclusive: 3.98 µM [activator, full curve], the Potency [2] was active: 14.1 µM and the activity change, negative = inhibition [3] was inconclusive: -31.3% [inhibitor].

In the case of `CC(C)c1ccc(CC(=O)N2CCC[C@@H](c3cccc(OC(C)(C)C(=O)O)c3)C2)cc1`, the Potency [4] is reported as inconclusive: 16.9 µM [inhibitor, partial curve].

For `CC1CC[C@]2(C(=O)O)CC[C@]3(C(=O)O)C(=CCC4[C@@]5(C)CC[C@H](OC6OC(C)C(O)C(OC7OC(CO)C(O)C(O)C7O)C6O)C(C)(C)C5CC[C@]43C)C2C1C` (stereo partly drawn), the Potency [5] was inconclusive: 10 µM [inhibitor, partial curve, poor fit] and the Potency [6] was “inactive”.

With `O=C1CC(c2ccc(O)cc2)Oc2ccccc21` (stereo not drawn) the activity change, negative = inhibition [7] was inconclusive: -5.04% and the Potency [8] was inconclusive: 63.1 µM [inhibitor, partial curve, poor fit].
